Values of other authors as cited in patent publication US8491930B2, “Pharmaceutical formulation containing ibuprofen and codeine” (Farmasierra Manufacturing, S.L., priority 2008, dated 2013).

SMILES: CC(C)Cc1ccc(C(C)C(=O)O)cc1 (centres unmarked) [Ibuprofen, 2-(4-isobutyl-phenyl)propionic acid]
- Solubility in dilute alkaline solutions (dilute alkaline solutions): soluble in dilute alkaline solutions
- Solubility in water (water): practically insoluble in water
